Experimental data taken from patent US11926595B1, “2-(2-ethoxyethoxy)-6-(4-hydroxyphenyl)-4-(4-methylphenyl)nicotinonitrile as an antimicrobial compound” (KING FAISAL UNIVERSITY, priority 2023, dated 2024).
At least one compound was matched to its structure with a doubt left.

Assays:
Assay type in all cases: cell-based
[1] = tested on: Escherichia coli; assay: Antimicrobial screening by agar dilution, Escherichia coli; conditions: E. Coli
Description: (§1) The antibacterial properties of the synthesized compound 2-(2-ethoxyethoxy)-6-(4-hydroxyphenyl)-4-(4-methylphenyl)nicotinonitrile were studied by the method of agar dilution. Test solutions of each compound was prepared in concentration of 1% using dimethylformamide as a solvent then they are diluted in physiological solution to obtain the final experimental dilutions 1: 100, 1:200, 1:400, 1:800. The effect of these substances are compared with furacillin in a controllable study. The testing microbes used were gram positive bacteria Staphylococcus aureus, gram negative bacteria Pseudomonas aeruginosa and Escherichia coli and Candida albicans fungus. The experiments used for this survey were meat-pentonlu agar (EPA) for cultivation of bacteria and Saburo environment for the fungus. Each experiment used 1 mL of test solution on each plate […]. Two drops of emulsified with microbes feel were added. All experimental samples were taken from the agar after 10, 20, 40, 60 minutes in the environment on the basis of Patrk planted. The bacteria were cultivated at a temperature of 37° C. for 1 day and the mushroom was kept in a thermostat for 2 hours at a temperature of 28° C. Then results were checked.

[2] = tested on: Candida albicans; assay: Antimicrobial screening by agar dilution, Candida albicans
Description: as §1

[3] = tested on: Staphylococcus aureus; assay: Antimicrobial screening by agar dilution, Staphylococcus aureus; conditions: St. Aereus
Description: as §1

[4] = tested on: Pseudomonas aeruginosa; assay: Antimicrobial screening by agar dilution, Pseudomonas aeruginosa; conditions: Ps. aeruginosa
Description: as §1

[5] = dilution rate 1:100, exposure time 10 min
[6] = dilution rate 1:100, exposure time 20 min
[7] = dilution rate 1:100, exposure time 40 min
[8] = dilution rate 1:100, exposure time 60 min
[9] = dilution rate 1:200, exposure time 10 min
[10] = dilution rate 1:200, exposure time 20 min
[11] = dilution rate 1:200, exposure time 40 min
[12] = dilution rate 1:200, exposure time 60 min
[13] = dilution rate 1:400, exposure time 10 min
[14] = dilution rate 1:400, exposure time 20 min
[15] = dilution rate 1:400, exposure time 40 min
[16] = dilution rate 1:400, exposure time 60 min
[17] = dilution rate 1:800, exposure time 10 min
[18] = dilution rate 1:800, exposure time 20 min
[19] = dilution rate 1:800, exposure time 40 min
[20] = dilution rate 1:800, exposure time 60 min

## NC(=O)N/N=C/c1ccc([N+](=O)[O-])o1 [Furacilin]
[1]; [5]
  antimicrobial activity: −
[1]; [6]
  antimicrobial activity: −
[1]; [7]
  antimicrobial activity: −
[1]; [8]
  antimicrobial activity: −
[1]; [9]
  antimicrobial activity: +
[1]; [10]
  antimicrobial activity: +
[1]; [11]
  antimicrobial activity: +
[1]; [12]
  antimicrobial activity: +
[1]; [13]
  antimicrobial activity: +
[1]; [14]
  antimicrobial activity: +
[1]; [15]
  antimicrobial activity: +
[1]; [16]
  antimicrobial activity: +
[1]; [17]
  antimicrobial activity: +
[1]; [18]
  antimicrobial activity: +
[1]; [19]
  antimicrobial activity: +
[1]; [20]
  antimicrobial activity: +
[2]; [5]
  antimicrobial activity: −
[2]; [6]
  antimicrobial activity: −
[2]; [7]
  antimicrobial activity: +
[2]; [8]
  antimicrobial activity: +
[2]; [9]
  antimicrobial activity: +
[2]; [10]
  antimicrobial activity: +
[2]; [11]
  antimicrobial activity: +
[2]; [12]
  antimicrobial activity: +
[2]; [13]
  antimicrobial activity: +
[2]; [14]
  antimicrobial activity: +
[2]; [15]
  antimicrobial activity: +
[2]; [16]
  antimicrobial activity: +
[2]; [17]
  antimicrobial activity: +
[2]; [18]
  antimicrobial activity: +
[2]; [19]
  antimicrobial activity: +
[2]; [20]
  antimicrobial activity: +
[3]; [5]
  antimicrobial activity: −
[3]; [6]
  antimicrobial activity: −
[3]; [7]
  antimicrobial activity: −
[3]; [8]
  antimicrobial activity: −
[3]; [9]
  antimicrobial activity: +
[3]; [10]
  antimicrobial activity: +
[3]; [11]
  antimicrobial activity: +
[3]; [12]
  antimicrobial activity: +
[3]; [13]
  antimicrobial activity: +
[3]; [14]
  antimicrobial activity: +
[3]; [15]
  antimicrobial activity: +
[3]; [16]
  antimicrobial activity: +
[3]; [17]
  antimicrobial activity: +
[3]; [18]
  antimicrobial activity: +
[3]; [19]
  antimicrobial activity: +
[3]; [20]
  antimicrobial activity: +
[4]; [5]
  antimicrobial activity: +
[4]; [6]
  antimicrobial activity: +
[4]; [7]
  antimicrobial activity: +
[4]; [8]
  antimicrobial activity: +
[4]; [9]
  antimicrobial activity: +
[4]; [10]
  antimicrobial activity: +
[4]; [11]
  antimicrobial activity: +
[4]; [12]
  antimicrobial activity: +
[4]; [13]
  antimicrobial activity: +
[4]; [14]
  antimicrobial activity: +
[4]; [15]
  antimicrobial activity: +
[4]; [16]
  antimicrobial activity: +
[4]; [17]
  antimicrobial activity: +
[4]; [18]
  antimicrobial activity: +
[4]; [19]
  antimicrobial activity: +
[4]; [20]
  antimicrobial activity: +
